Experimental data reported in patent US20110294219A1.
Results are given in words; binding and its absence hold for the method and conditions named. In cells and extracts the contact can be indirect. Some results given as binding are weak or reduced against the parent protein; the word gives no strength.

Sequences of proteins named here, by UniProt entry; tags and fusion partners are left off.
UniProt Q9HC16: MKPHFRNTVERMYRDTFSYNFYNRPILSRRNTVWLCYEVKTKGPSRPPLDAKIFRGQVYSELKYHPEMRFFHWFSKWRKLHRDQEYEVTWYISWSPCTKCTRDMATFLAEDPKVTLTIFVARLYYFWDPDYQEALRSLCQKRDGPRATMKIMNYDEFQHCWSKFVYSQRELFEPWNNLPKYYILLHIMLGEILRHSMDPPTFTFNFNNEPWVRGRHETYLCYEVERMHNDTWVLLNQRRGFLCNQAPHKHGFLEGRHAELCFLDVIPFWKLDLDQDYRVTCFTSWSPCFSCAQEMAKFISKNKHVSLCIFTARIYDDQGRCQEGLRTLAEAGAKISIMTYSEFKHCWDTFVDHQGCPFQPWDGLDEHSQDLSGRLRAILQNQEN

Biological target: HA-tagged human APOBEC3G (human) (UniProt Q9HC16)
Assay: co-precipitation with anti-HA antibody from cytoplasmic extracts of co-transfected 293T cells, immunoblot with anti-HFV Bet antiserum

B1: human foamy virus (HFV) Bet protein (protein)
chain: MDSYEKEESVASTSGIQDLQTLSELVGPENAGEGELTIAEEPEENPRRPRRYTKREVKCVSYHAYKEIEDKHPQHIKLQDWIPTPEEMIAQKVQNQDLGTILSFDVTCLKSITSLGRNDPGDDPSIMSHVLPVVTPWPMSQDHYAPTLFGILDRYYQGYLKSPATYQTWKFTCQVDPSGKRFMETQFWVPPLGQVNIQFYKNYQILTCCQAVDPFANIFHGTDEEMFDIDSGPDVWCSPSLCFKVIYEGAMGQKQEQKTWLCRLGHGHRMGACDYRKVDLYAMRQGKENPYGDRGDAALQYAYQVKRGCKAGCLASPVLNYKALQFHRTIMADFTNPRIGEGHLAHGYQAAMEAYGPQRGSNEERVWWNVTRNQGKQGGEYYREGGEEPHYPNTPAPHRRTWDERHKVLKLSSFATPSDIQRWTTKALPYGWKVVTESGNDYTSRRKIRTLTEMTQDEIRKRWESGYCDPFIDSGSDSDGPF
  binding: binds
